Paper PMC12775124, “CUL4A-DDB1-DCAF10 is an N-recognin for N-terminally acetylated Src kinases” (Nature Communications, 2026)
These are yes or no findings as the source states them, for the method shown. Some entries that bind do so weakly or less than the wild type. Where a sequence is shown, tags or fusion partners need not be part of it.

Protein sequences, listed by entry. Tags and fused reporters are not part of them. Lines headed by an entry give the natural chain unless they say otherwise; changes in a name come on top.
UniProt Q6I9Y2: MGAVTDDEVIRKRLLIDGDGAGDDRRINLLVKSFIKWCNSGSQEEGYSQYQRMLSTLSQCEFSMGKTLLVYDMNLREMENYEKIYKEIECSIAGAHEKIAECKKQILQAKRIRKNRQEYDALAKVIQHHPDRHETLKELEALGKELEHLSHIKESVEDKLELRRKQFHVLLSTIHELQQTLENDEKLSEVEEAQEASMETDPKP
UniProt Q16531: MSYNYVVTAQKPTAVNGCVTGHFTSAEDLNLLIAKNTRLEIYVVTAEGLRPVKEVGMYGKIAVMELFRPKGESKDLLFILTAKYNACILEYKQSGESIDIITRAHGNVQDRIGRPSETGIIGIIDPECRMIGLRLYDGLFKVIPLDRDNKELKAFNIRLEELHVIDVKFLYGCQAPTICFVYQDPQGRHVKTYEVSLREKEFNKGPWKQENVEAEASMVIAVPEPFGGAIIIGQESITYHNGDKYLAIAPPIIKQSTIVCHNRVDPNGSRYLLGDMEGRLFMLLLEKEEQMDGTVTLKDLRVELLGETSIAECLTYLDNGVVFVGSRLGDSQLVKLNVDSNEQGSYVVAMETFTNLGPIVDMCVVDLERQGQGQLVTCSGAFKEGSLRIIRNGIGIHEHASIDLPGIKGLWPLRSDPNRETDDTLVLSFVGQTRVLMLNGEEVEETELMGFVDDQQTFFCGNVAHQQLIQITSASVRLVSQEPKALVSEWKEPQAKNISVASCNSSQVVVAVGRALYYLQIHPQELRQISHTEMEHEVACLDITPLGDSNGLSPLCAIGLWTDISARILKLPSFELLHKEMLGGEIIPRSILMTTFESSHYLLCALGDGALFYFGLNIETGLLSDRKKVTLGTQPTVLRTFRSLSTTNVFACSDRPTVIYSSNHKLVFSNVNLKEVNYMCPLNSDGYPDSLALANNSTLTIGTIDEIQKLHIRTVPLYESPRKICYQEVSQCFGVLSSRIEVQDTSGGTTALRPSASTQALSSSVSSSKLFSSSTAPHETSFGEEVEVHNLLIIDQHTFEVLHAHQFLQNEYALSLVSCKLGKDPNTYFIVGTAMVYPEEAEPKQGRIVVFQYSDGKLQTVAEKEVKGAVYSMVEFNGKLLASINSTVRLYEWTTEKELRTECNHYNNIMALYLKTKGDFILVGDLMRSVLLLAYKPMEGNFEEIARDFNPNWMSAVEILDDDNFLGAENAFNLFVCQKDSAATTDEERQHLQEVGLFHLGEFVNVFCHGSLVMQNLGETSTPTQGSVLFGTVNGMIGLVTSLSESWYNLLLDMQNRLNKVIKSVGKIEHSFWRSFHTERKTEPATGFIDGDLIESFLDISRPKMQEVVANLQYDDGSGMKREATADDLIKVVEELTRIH

T1: Nt-free THOC7 peptide (UniProt Q6I9Y2)
T1 sequence (peptide, biotin at the C-terminus after the Lys3 spacer): GAVTDDEVIRKKK

T2: Nt-acetylated THOC7 peptide (UniProt Q6I9Y2)
T2 sequence (peptide, N-terminal acetyl on Gly2; biotin at the C-terminus after the Lys3 spacer): GAVTDDEVIRKKK


What was measured:
[1] = target: StrepII-DDB1 (UniProt Q16531); test: reconstitution and purification of a complex; E3 ligase complexes (WT: CUL4A, RBX1, MBP-DCAF10, StrepII-DDB1; RBX1^mut; -DCAF10; DCAF10^mut) purified and shown by TCE in-gel visualization; procedure in the Supplementary Methods
[2] = target: T1, Nt-free THOC7 peptide; test: pull-down; Nt-peptides bound to streptavidin beads incubated with purified GST-DCAF10 or GST alone; Western blots against GST, DCAF10 and streptavidin; n = 3; both purified
[3] = target: T2, Nt-acetylated THOC7 peptide; test: as above

Row | binding [1] | binding [2] | binding [3] | Binder
1 | binds | – | – | MBP-DCAF10 (protein, UniProt Q5QP82 1-559) MFPFGPHSPGGDGSAGAGAEEPTPHEGQAAATGPPSPLHPGADATHPPPPARSPRRPGAPSLSPAPRSGELGLPGAPESSTASAPGEPSPPSPPCRRPGPDCRAKSRGRHGLGAGLGGPGARLFGWLKERSLGRGLFVDPARDNFRTMTSLYGSIHPADSVYLSTRTHGAVFNLEYSPDGSVLTVACEQTEVLLFDPISSKHIKTLSEAHEDCVNNIRFLDNRLFATCSDDTTIALWDLRKLNTKVCTLHGHTSWVKNIEYDTNTRLLVTSGFDGNVIIWDTNRYTEDGCPHKKFFHTRFLMRMRLTPDCSKMLISTSSGYLLILHDLDLTKSLEVGSYPILRARRTTSSSDLTTSSSSSGPRVSGSPCHHSDSNSSEKHMSRASQREGVSPRNSLEVVTPEVLGESDHGNCITSLQLHPKGWATLLRCSSNSDDEECTCVYEFQEGAPVRPVSPRCSLRLTHYIEEANVGRGYIKELCFSPDGRMISSPHGYGIRLLGFDKQCSELVDCLPKEASPLRVIRSLYSHNDVVLTTKFSPTHCQIASGCLSGRVSLYQPKF
2 | – | no binding | no binding | GST-DCAF10 (protein, UniProt Q5QP82 1-559) MFPFGPHSPGGDGSAGAGAEEPTPHEGQAAATGPPSPLHPGADATHPPPPARSPRRPGAPSLSPAPRSGELGLPGAPESSTASAPGEPSPPSPPCRRPGPDCRAKSRGRHGLGAGLGGPGARLFGWLKERSLGRGLFVDPARDNFRTMTSLYGSIHPADSVYLSTRTHGAVFNLEYSPDGSVLTVACEQTEVLLFDPISSKHIKTLSEAHEDCVNNIRFLDNRLFATCSDDTTIALWDLRKLNTKVCTLHGHTSWVKNIEYDTNTRLLVTSGFDGNVIIWDTNRYTEDGCPHKKFFHTRFLMRMRLTPDCSKMLISTSSGYLLILHDLDLTKSLEVGSYPILRARRTTSSSDLTTSSSSSGPRVSGSPCHHSDSNSSEKHMSRASQREGVSPRNSLEVVTPEVLGESDHGNCITSLQLHPKGWATLLRCSSNSDDEECTCVYEFQEGAPVRPVSPRCSLRLTHYIEEANVGRGYIKELCFSPDGRMISSPHGYGIRLLGFDKQCSELVDCLPKEASPLRVIRSLYSHNDVVLTTKFSPTHCQIASGCLSGRVSLYQPKF
3 | binds | – | – | DCAF10^mut (F172G, K257A, I475G) (protein, UniProt Q5QP82 1-559) MFPFGPHSPGGDGSAGAGAEEPTPHEGQAAATGPPSPLHPGADATHPPPPARSPRRPGAPSLSPAPRSGELGLPGAPESSTASAPGEPSPPSPPCRRPGPDCRAKSRGRHGLGAGLGGPGARLFGWLKERSLGRGLFVDPARDNFRTMTSLYGSIHPADSVYLSTRTHGAVGNLEYSPDGSVLTVACEQTEVLLFDPISSKHIKTLSEAHEDCVNNIRFLDNRLFATCSDDTTIALWDLRKLNTKVCTLHGHTSWVANIEYDTNTRLLVTSGFDGNVIIWDTNRYTEDGCPHKKFFHTRFLMRMRLTPDCSKMLISTSSGYLLILHDLDLTKSLEVGSYPILRARRTTSSSDLTTSSSSSGPRVSGSPCHHSDSNSSEKHMSRASQREGVSPRNSLEVVTPEVLGESDHGNCITSLQLHPKGWATLLRCSSNSDDEECTCVYEFQEGAPVRPVSPRCSLRLTHYIEEANVGRGYGKELCFSPDGRMISSPHGYGIRLLGFDKQCSELVDCLPKEASPLRVIRSLYSHNDVVLTTKFSPTHCQIASGCLSGRVSLYQPKF
